Source: the supplement of paper PMC5407854, “Inhibitor of ppGalNAc-T3-mediated O-glycosylation blocks cancer cell invasiveness and lowers FGF23 levels” (eLife, 2017)
Whole data set: some 1,700 compounds, median “T3 sensor activation Q score (MG/GFP ratio z-score vs DMSO controls)” near 0.25, cut for the highest 2% near 1.9. This is one part of the list.

tested on: ppGalNAc-T3 sensor; assay: T3 sensor activation Q score (MG/GFP ratio z-score vs DMSO controls) (SD units); higher = more sensor activation (inhibition of ppGalNAc-T3 glycosylation); conditions: HEK293 sensor cells; 10 µM; 6 h
Description: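 Cells were treated with compound at 10 uM for 6 h, then MG/GFP ratio was read by flow cytometry (10,000 cells per well, duplicate wells). Q = (R - R_neg)/SD_neg relative to DMSO vehicle controls; the signal rises when the glycosyltransferase is inhibited.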

Compound	T3 sensor activation Q score
O=C1CN=C(c2ccc[nH]2)c2cc(Cl)ccc2N1	0.2
O=[N+]([O-])c1ccc(-c2ccccc2)c([As](=O)(O)O)c1	0.35
C[C@]12CC[C@@H]3c4ccc(OC(=O)N(CCCl)CCCl)cc4CC[C@H]3[C@@H]1CC[C@@H]2OP(=O)(O)O	-0.8
C[C@H]1CC[C@@]2(C)[C@@H](CC[C@@H]3[C@@H]2CC[C@]2(C)[C@@H](O)CC[C@@H]32)C1	3
CCOP(=O)(OCC)/C(C#N)=C/c1ccc(Br)cc1	0.6
c1ccc(C2NCCc3[nH]cnc32)cc1 (stereo not drawn)	0.4
CCOC(=O)c1ccc2[nH]c(-c3ccc(S(=O)(=O)F)cc3)cc(=O)c2c1	0.95
O=c1cc(-c2nn[nH]n2)[nH]c(=O)[nH]1	0.45
NN=C1C(Cl)=C(Cl)C(Cl)=C1Cl	-1.5
CCN(CC)c1ccc(C=C2C(=O)NC(=S)NC2=O)cc1	-0.95
Cn1c(CCCC(=O)O)nc2cc(N(CCCl)CCCl)ccc21	-0.35
c1cncc(C2Nc3cccc4cccc(c34)N2)c1	1.65
O=c1cccc2n1C[C@H]1C[C@@H]2CN2CCCC[C@@H]12	0.2
COC(=O)C1C(O)C(C)C(O)C(C)/C=C\C=C(C)C(=O)Nc2c(C)c(OC(C)=O)c3c(c2O)C(=O)C(C)=C2OCOC(=C23)C(C)=CC(C)(O)C(O)C(C)C1O (stereo not drawn)	-0.9
c1cnc2c(c1)ccc1ncccc12	1.15
N#CC12CNCC1CN=N2 (stereo not drawn)	1.65
Cc1nc(C)c(C(=O)N/N=C/c2ccc(N(CCCl)CCCl)cc2)s1	0.55
O=c1cccc2n1C[C@@H]1CNC[C@H]2C1	0.35
CN1CCN(c2nc(N)cc(=O)[nH]2)CC1	0.85
CC(C)(C)c1cc(C=C(C#N)C#N)cc(C(C)(C)C)c1O	-4.4
O=C1N[C@H]2[C@H](O)[C@H](O)[C@@H](O)[C@H](O)[C@@H]2c2cc3c(c(O)c21)OCO3	-0.7
O=C1C[C@@H]2OCC=C3C[N+]4([O-])CC[C@]56c7ccccc7N1[C@H]5[C@H]2[C@H]3C[C@@H]64 (stereo partly drawn)	0.2
FCCN(CCF)c1cccc(Cl)c1	1.9

Compound	T3 sensor activation Q score
C=C1C/C(=C/C)C(=O)O[C@@H]2CCN3CC=C(COC(=O)[C@]1(C)O)[C@H]23	0.65
O=C1/C(=C\c2ccccc2)C2OCC=C3CN4CCC56c7ccccc7N1C5C2C3CC46 (stereo not drawn)	0.85
C=C1C(=O)O[C@H]2C[C@@]3(C)O[C@@H]3CC/C(C)=C/[C@@H](OC(C)=O)[C@H]12	1.05
O=P(OC1=CCCCC1)(c1ccccc1)c1ccccc1	1.05
Nc1nc(N)c2cnnn2n1	0.5
O=[N+]([O-])c1cc([As](=O)(O)c2ccc(O)c([N+](=O)[O-])c2)ccc1O	-1.4
CN1C2CCC1[C@@H](COC(=O)c1ccccc1)[C@@H](O)C2 (stereo partly drawn)	0.75
O=C1N(c2nncs2)CCN1[N+](=O)[O-]	2.65
N=Cc1c(O)n(-c2ccccc2)c(=O)n(-c2ccccc2)c1=O	1.25
CSc1nc(N)c(N=Nc2ccc([As](=O)(O)O)cc2)c(=O)[nH]1	-1.35
CN1CCCC1c1ccc(=O)[nH]c1 (stereo not drawn)	0.55
CCCC(=O)N(C)C1=Nc2ccc(Cl)cc2C(c2ccccc2)=[N+]([O-])C1	-0.25
COc1ccc2c(c1)NP(=S)(Oc1ccccc1)N2 (stereo not drawn)	-0.15
C=C1C[C@@H]2[C@H](CC[C@]3(C)C(=O)CC[C@@H]23)[C@@]2(C)C=CC(=O)C=C12	0.45
CN(C)P(=O)(N(C)C)N1CC1	-0.4
Cn1cc(C=O)c2nccnc21	-1.5
C1CC2NCCC3NCCC(N1)N32 (stereo not drawn)	-0.95
C=CCN1CCC23c4c5ccc(O)c4OC2C(=O)CCC3(O)C1C5 (stereo not drawn)	0.65
CC(=O)Nc1ccc([As](=O)(O)c2ccc([N+](=O)[O-])cc2)cc1	0.1
O=P1(N(CCCl)CCCl)NCCCO1 (stereo not drawn)	-0.1
COc1ccc(C(=O)OC2CCC3(C)C4CCC5C6(O)CC(O)C7(O)C(CN8CC(C)CCC8C7(C)O)C6(O)CC53OC24O)cc1OC (stereo not drawn)	0.75
C1CN1c1nc(N2CC2)nc(N2CC2)n1	0.65
O=C(O)c1[nH]c(=O)[nH]c(=O)c1F	0.75

Compound	T3 sensor activation Q score
Cc1c(C(=O)c2ccccc2)c2ccccc2n1C	1.35
CN1C(=O)CC[C@@]2(C)C1=CC[C@@H]1[C@@H]2CC[C@@]2(C)[C@H]1CC[C@]2(C)O	0.4
COc1cc2c(cc1O)C[C@H]1c3c(cc(O)c(OC)c3-2)CCN1C	-0.55
COc1cc(C=C2C(=O)NC(=O)NC2=O)ccc1O	0.7
O=C(O)CN1C(=O)CN=C(c2ccccn2)c2cc(Cl)ccc21	0.1
C/C=C/CC1(CC)C(=O)NC(=S)NC1=O	-0.45
CN(C)C1CCc2[nH]c3c(F)cc(F)cc3c2C1 (stereo not drawn)	1.25
CCC1CN1P(=O)(Oc1ccc(Cl)cc1)N1CC1CC (stereo not drawn)	1.35
NC(=S)c1cn([C@@H]2O[C@H](CO)[C@@H](O)[C@H]2O)c2ncnc(N)c12	4.95
CN1CCC2(O)OCCCC2C1 (stereo not drawn)	0.45
C[C@H](N)C(=O)N[C@@H]1[C@H]2C(=C(O)C[C@@H](O)[C@@H]2O)C(=O)O[C@]1(C)C(Cl)Cl	-1.45
CC1(C)CC(=O)CC(C)(C)N1O	-1.9
CN1C2c3ccccc3C3C4c5ccccc5C(C31)C(C2[N+](=O)[O-])N4C (stereo not drawn)	1.1
CC(=O)Nc1cc([As](=O)(O)O)ccc1O	1.4
CC12CCC3C(CCC4Cc5[nH]c6ccccc6c5CC43C)C1CCC2O (stereo not drawn)	0.6
CCN1CCc2ccccc2C1	1.2
CCC(C)c1cnc(CC(C)C)c(=O)n1O (stereo not drawn)	0.05
NCCCNCCSP(=O)(O)O	1.15
COC1C(OC(=O)c2ccc(C)[nH]2)C(O)C(Oc2ccc3c(O)c(NC(=O)c4ccc(O)c(CC=C(C)C)c4)c(=O)oc3c2Cl)OC1(C)C (stereo not drawn)	-0.95
CCC(CO)NC(=O)C1C=C2c3cccc4[nH]cc(c34)CC2N(C)C1 (stereo not drawn)	1.8
COc1ccc(CCNC2(C#N)CCCCC2)cc1OC	0.2
Cc1c(CCN)ccc2c1[nH]c1ccccc12	0.7
O=C(CF)N(O)c1ccc(/C=C/c2ccccc2)cc1	-1.1

Looked up above:
Value for `CCN1CCc2ccccc2C1` under T3 sensor activation Q score: 1.2
Value for `O=[N+]([O-])c1cc([As](=O)(O)c2ccc(O)c([N+](=O)[O-])c2)ccc1O` under T3 sensor activation Q score: -1.4
Value for `COc1ccc2c(c1)NP(=S)(Oc1ccccc1)N2` (stereo not drawn) under T3 sensor activation Q score: -0.15
Value for `O=C1/C(=C\c2ccccc2)C2OCC=C3CN4CCC56c7ccccc7N1C5C2C3CC46` (stereo not drawn) under T3 sensor activation Q score: 0.85

Following part

Compound	T3 sensor activation Q score
Cc1cc(OCCN2CC2)c2ccccc2n1	0
O=C(NC(=O)c1c(F)cccc1F)Nc1cc(Cl)c(F)c(Cl)c1F	-0.65
CC(C)NC1C2CCC(CC2)C1(O)c1ccc(Cl)c(Cl)c1 (stereo not drawn)	0.45
CC(C)(O)C1C2OC(=O)C1C1(O)CC3OC34C(=O)OC2C14C (stereo not drawn)	0.4
CO[C@@]12[C@H](COC(N)=O)C3=C(C(=O)C(C)=C(N)C3=O)N1C[C@H]1[C@@H]2N1C (stereo partly drawn)	1.1
S=C1NC2(CCCCC2)NC12CCCCC2	0.55
CC1CC(C)OP(=O)(OCCC#N)O1 (stereo not drawn)	-0.7
CC(C)CC(NC=O)C(=O)O.COc1cc2c(cc1OC)C13CCN4CC5=CCOC6CC(=O)N2C1C6C5CC43 (stereo not drawn)	0.15
CN1C(=O)NC(=O)C(N=Nc2ccc(Cl)cc2)C1=O (stereo not drawn)	1.7
COc1ccc2c(c1)C13CCN(C)C(C2)C1CCC1(C3)OCCO1 (stereo not drawn)	0.55
N#CC(C#N)=Cc1ccc(C=C(C#N)C#N)cc1	-0.85
O=C(NCCCN1CC1)Nc1cccc2ccccc12	1.55
COc1ccc2c(c1O)[C@]13CCN(C)[C@H](C2)[C@@H]1CCC(=O)C3	-0.4
C=CCNC(=S)Nc1ccc(OC(=O)Nc2ccc(Cl)c(Cl)c2)cc1	0.4
c1cc(C2N3CCCN2CC3)ccn1 (stereo not drawn)	0.05
ClC1=C(Cl)C(Cl)=C(Cl)C1=C/C=C/c1ccccc1	-0.6
Cc1c2ccncc2c(C)c2c1[nH]c1ccccc12	0.15
CC[C@@]1(O)C(=O)OCc2c1cc1n(c2=O)Cc2cc3c(NC(=O)CN)cccc3nc2-1	-1.65
O=P1(NCCCl)OCCCN1CCCl (stereo not drawn)	-0.15
Oc1cccc2nc3ccccc3nc12	-0.35
CN1CCC(c2c[nH]c3ccccc23)C1 (stereo not drawn)	1.75
CCC(N)Cc1c[nH]c2ccccc12 (stereo not drawn)	0.25
O=C1CCC2(O)[C@@H]3Cc4ccc(O)c5c4[C@]2(CCN3Cc2ccoc2)C1O5 (stereo partly drawn)	-0.05

Compound	T3 sensor activation Q score
COc1ccccc1[As](=O)(O)CC(O)COc1ccc(Cl)cc1Cl (stereo not drawn)	-0.4
Cc1c(N)nc([C@H](CC(N)=O)NC[C@H](N)C(N)=O)nc1C(=O)N[C@H](C(=O)N[C@H](C)[C@@H](O)[C@H](C)C(=O)N[C@H](C(=O)NCCc1nc(-c2nc(C(=O)NCCC[S+](C)C)cs2)cs1)[C@@H](C)O)[C@@H](OC1OC(CO)C(O)C(O)C1OC1OC(CO)C(O)C(OC(N)=O)C1O)c1cnc[nH]1 (stereo partly drawn)	-1.6
CC1=CC(O)C(O)C2(C)C1CC1OC(=O)C(O)C3C(C)C(O)C4(O)OCC13C42 (stereo not drawn)	-0.3
CC(CC(C#N)(c1ccccc1)c1ccccc1)N1CCCCC1 (stereo not drawn)	0.05
Cc1n[nH]c2c([N+](=O)[O-])c(=O)[nH]c(=O)n12	1.2
O=C(OC1CCCCC1)c1ccccc1C(=O)OC1CCCCC1	0.2
Cc1ccccc1NC(=O)NCCN1CC1	1.75
Cn1cnc([N+](=O)[O-])c1Sc1n[nH]c(N)n1	0.05
CC1(C)NC(=S)C(C)(C)N1N=O	-0.35
COc1cc(OC)cc(C2(C#N)CCN(C)CC2)c1	1.55
CCc1cc2c(cc1-c1csc(C/C(N)=N/O)n1)C(C)(C)CCC2(C)C	1.8
O=C1NC(=O)C(=Cc2ccc3ccccc3c2)C(=O)N1	0.95
O=C1CCCN1CC#CCN1CCCC1	1.05
CC(C)(C)n1cc(C(=O)c2ccccc2)cc1-c1ccccc1	0.7
Cc1ccc2c(c1)Oc1ccccc1N=C2	-0.25
O=[As](O)(O)c1ccc(N=Nc2ccc(O)cc2)cc1	0.55
CN1CCN(c2nc(N)c(Br)c(Cl)n2)CC1	0.1
O=c1[nH]cc(N(CCCl)CCCl)c(=O)[nH]1	0
CN1CCc2cc3c(cc2C1)OCO3	0.2
CC[C@@]1(O)C(=O)OCc2c1cc1n(c2=O)Cc2cc3ccccc3nc2-1	-1.75
CC1C(C)N1CC(O)Cn1ccnc1[N+](=O)[O-] (stereo not drawn)	1.15
